Results published in doi:10.1101/2023.09.08.556844.
No constants are given. Whether binding was seen depends on the method and setting. For part of these data: In cells and extracts the contact can be indirect. Some binding calls cover weakened binding; strength is not graded here. For part of these data: Where a sequence is shown, tags or fusion partners need not be part of it.

Chains of the proteins cited; added tags and fusions are not shown.
UniProt Q15717: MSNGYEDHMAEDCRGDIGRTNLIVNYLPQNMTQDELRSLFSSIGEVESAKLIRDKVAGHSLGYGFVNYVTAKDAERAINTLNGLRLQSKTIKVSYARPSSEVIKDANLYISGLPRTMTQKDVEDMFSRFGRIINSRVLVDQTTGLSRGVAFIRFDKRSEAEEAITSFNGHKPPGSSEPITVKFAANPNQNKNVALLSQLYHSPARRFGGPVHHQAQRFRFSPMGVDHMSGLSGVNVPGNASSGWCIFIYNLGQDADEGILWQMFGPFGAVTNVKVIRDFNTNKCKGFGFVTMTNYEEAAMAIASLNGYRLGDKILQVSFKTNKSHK
UniProt B5DF91: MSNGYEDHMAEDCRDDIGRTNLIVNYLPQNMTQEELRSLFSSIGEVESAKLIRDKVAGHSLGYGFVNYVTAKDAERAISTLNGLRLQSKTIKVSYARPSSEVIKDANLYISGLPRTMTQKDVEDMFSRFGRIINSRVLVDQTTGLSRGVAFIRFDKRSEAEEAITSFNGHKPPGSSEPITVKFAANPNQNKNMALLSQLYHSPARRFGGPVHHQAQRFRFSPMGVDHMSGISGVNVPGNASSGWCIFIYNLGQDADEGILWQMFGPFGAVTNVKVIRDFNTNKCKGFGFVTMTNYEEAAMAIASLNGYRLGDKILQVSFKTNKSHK

Assays:
[1] = molecular target: T1, FLAG-HA tagged Syntaxin 5 (FH-STX5), full length (human) (UniProt Q13190); experiment: pull-down
T1 sequence: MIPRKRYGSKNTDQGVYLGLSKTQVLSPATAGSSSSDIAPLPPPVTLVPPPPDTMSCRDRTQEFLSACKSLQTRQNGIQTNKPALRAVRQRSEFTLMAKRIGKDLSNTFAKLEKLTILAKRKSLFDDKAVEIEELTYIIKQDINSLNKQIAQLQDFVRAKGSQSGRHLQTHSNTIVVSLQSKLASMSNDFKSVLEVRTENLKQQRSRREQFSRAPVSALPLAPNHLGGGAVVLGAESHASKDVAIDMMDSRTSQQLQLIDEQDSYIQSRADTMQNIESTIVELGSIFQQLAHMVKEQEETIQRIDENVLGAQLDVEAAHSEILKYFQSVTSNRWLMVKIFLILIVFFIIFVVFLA

[2] = molecular target: T1, FLAG-HA tagged Syntaxin 5 (FH-STX5), full length (human); experiment: co-IP
[3] = molecular target: HA-tagged HuR (HA-HuR), full length (human) (UniProt Q15717); experiment: co-IP

For “His-tagged recombinant HuR (rHuR) (from UniProt Q15717 1-326)”, which binding [1] is on record?
The binding was “binds”.

“HuR, endogenous in C6 cells (from UniProt B5DF91 1-326)” was tested. Which binding [2] did it give?
Its binding is “binds”.

B1: Syntaxin 5, endogenous in C6 cells (protein, UniProt Q08851 1-355)
chain: MIPRKRYGSKNTDQGVYLGLSKTQVLSPATAINSSSDIAPLPTPVALVPSPPDTMSCRDRTQEFLSACKSLQSRQNGIQTNKPALHATRQCSEFTLMARRIGKDLSNTFAKLEKLTILAKRKSLFDDKAVEIEELTYIIKQDINSLNKQIAQLQDFVRAKGSQSGRHLQTHSNTIVVSLQSKLASMSNDFKSVLEVRTENLKQQRNRREQFSRAPVSALPLAPNNLGGGPIVLGGESRASRDVAIDMMDPRTSQQLQLIDEQDSYIQSRADTMQNIESTIVELGSIFQQLAHMVKEQEETIQRIDENVLGAQLDVEAAHSEILKYFQSVTSNRWLMVKIFLILIVFFIIFVVFLA
For B1, which binding [3] is on record?
The binding was “binds”.
